Reference: the supplement of paper PMC11732987, “Enantioselective OTUD7B fragment discovery through chemoproteomics screening and high-throughput optimisation” (Communications Chemistry, 2025)
Some of the results follow. The data scatter; read single values as rough.

Sequences of proteins named here, by UniProt entry; tags and fusion partners are left off. A change or cut given only in a name is not applied to a line headed by its entry.
UniProt Q07617: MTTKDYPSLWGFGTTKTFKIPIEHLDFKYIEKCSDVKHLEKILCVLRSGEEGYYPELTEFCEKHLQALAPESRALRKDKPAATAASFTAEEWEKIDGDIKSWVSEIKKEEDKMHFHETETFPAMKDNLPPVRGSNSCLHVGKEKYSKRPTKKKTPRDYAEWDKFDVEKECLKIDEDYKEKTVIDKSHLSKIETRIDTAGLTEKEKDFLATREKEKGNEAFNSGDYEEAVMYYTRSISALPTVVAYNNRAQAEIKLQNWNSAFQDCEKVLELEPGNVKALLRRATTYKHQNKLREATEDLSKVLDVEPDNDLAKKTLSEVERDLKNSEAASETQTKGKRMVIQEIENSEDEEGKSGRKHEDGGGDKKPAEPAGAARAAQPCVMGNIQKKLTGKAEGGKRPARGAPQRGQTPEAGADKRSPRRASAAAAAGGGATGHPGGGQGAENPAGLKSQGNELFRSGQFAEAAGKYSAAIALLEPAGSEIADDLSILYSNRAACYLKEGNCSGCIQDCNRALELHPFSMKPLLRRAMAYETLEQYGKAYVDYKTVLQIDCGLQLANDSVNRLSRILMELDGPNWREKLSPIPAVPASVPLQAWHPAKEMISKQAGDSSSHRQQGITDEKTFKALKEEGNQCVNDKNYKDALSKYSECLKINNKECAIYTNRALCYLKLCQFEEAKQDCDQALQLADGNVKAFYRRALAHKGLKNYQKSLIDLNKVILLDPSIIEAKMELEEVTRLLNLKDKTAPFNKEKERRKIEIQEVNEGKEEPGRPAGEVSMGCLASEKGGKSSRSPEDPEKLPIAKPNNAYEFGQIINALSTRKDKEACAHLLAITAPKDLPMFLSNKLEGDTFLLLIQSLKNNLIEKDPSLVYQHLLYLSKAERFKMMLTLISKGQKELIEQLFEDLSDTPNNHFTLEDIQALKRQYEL
UniProt P30825: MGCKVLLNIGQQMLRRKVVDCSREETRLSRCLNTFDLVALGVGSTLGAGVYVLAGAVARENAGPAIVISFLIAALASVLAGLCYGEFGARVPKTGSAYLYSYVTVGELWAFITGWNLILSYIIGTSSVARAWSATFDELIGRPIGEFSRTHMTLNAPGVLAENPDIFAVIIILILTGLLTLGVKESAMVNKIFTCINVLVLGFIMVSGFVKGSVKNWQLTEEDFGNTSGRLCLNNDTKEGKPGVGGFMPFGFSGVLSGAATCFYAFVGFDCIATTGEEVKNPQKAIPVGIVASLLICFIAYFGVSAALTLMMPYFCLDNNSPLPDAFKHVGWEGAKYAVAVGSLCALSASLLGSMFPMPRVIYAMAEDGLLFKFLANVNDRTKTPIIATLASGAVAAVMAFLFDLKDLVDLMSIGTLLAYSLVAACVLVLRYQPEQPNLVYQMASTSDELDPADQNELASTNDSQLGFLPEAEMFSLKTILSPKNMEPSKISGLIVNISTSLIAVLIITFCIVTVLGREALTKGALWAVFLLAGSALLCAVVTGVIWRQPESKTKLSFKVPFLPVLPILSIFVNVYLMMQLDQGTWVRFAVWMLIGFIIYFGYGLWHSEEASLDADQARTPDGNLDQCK
UniProt Q96CW6: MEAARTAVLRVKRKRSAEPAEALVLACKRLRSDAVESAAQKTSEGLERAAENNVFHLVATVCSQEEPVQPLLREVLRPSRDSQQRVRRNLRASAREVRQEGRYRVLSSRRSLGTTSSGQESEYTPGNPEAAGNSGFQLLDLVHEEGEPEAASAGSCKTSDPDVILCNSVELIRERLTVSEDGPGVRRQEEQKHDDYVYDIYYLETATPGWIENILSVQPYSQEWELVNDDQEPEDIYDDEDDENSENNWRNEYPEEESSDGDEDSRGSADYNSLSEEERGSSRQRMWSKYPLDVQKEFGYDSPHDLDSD
UniProt Q8TB61: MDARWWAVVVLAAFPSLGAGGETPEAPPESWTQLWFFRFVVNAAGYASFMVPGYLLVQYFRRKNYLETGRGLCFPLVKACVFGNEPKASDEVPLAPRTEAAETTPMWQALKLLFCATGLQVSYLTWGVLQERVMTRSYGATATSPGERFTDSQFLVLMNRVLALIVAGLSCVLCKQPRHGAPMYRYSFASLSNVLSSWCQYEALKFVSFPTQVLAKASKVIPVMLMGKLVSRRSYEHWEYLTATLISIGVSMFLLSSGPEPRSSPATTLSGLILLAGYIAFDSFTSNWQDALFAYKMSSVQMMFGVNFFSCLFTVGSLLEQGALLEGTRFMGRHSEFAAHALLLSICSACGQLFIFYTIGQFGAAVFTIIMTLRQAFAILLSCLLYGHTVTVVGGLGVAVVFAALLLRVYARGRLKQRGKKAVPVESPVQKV
UniProt Q06945: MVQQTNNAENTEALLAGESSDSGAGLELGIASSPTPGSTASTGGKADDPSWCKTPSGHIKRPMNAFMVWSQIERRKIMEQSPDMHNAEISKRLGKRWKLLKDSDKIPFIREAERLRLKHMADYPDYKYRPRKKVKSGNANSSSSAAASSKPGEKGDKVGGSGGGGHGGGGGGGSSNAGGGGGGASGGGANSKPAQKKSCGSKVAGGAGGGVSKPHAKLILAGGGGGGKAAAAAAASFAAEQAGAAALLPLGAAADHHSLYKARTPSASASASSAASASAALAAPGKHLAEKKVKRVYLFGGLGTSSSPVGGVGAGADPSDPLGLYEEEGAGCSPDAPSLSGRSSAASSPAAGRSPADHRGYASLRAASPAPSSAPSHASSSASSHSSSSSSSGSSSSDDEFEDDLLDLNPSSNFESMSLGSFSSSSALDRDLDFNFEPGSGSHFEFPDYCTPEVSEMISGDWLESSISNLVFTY
UniProt Q9Y6M7: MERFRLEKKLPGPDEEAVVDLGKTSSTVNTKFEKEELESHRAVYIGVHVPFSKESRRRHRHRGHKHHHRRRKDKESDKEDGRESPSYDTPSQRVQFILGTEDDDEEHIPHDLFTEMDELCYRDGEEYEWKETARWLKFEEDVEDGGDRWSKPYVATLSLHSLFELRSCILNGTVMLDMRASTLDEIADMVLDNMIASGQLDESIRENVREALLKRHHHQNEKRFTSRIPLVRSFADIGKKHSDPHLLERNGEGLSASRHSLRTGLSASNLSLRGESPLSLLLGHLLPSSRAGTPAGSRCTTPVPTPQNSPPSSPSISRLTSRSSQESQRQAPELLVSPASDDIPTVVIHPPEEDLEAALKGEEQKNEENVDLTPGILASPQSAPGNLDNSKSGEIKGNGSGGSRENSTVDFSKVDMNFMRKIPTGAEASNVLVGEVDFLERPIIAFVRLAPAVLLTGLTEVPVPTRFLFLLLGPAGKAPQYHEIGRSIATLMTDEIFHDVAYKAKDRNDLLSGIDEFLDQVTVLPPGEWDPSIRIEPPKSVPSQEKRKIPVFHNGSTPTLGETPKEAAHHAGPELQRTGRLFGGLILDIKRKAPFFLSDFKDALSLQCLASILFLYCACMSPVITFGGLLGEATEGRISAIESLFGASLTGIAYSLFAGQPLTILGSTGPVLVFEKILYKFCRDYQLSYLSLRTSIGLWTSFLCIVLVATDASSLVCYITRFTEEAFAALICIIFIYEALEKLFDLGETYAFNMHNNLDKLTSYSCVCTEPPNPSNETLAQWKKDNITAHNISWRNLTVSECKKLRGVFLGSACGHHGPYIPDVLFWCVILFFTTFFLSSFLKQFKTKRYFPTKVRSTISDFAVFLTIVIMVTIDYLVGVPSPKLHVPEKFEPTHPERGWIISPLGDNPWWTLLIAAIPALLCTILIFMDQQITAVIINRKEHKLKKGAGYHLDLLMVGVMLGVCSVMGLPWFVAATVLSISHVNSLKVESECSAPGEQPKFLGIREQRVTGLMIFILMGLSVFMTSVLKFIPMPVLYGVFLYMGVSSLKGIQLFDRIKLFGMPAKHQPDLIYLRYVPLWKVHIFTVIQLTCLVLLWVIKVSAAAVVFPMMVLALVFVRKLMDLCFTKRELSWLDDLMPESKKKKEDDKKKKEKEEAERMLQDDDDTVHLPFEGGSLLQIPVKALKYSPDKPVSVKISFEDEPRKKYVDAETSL
UniProt P53794: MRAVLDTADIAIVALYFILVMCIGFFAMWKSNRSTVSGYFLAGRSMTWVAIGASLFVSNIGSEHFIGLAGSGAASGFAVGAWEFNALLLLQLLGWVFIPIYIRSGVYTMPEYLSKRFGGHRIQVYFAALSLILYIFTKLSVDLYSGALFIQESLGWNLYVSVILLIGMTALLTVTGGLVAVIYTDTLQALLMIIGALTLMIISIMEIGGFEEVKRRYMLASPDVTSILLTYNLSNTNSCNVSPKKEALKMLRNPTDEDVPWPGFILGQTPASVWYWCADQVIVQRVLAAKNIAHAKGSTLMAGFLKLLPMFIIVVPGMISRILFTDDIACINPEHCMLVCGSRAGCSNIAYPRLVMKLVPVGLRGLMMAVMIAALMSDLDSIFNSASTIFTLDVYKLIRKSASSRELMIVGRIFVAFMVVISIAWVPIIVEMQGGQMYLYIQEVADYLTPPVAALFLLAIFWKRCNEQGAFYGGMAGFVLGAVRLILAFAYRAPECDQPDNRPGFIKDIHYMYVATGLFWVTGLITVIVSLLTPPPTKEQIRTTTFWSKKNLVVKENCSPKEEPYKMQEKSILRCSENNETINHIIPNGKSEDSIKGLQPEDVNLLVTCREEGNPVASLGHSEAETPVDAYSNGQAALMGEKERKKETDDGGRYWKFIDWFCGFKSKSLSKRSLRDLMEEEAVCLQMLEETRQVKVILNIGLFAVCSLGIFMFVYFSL
UniProt P43007: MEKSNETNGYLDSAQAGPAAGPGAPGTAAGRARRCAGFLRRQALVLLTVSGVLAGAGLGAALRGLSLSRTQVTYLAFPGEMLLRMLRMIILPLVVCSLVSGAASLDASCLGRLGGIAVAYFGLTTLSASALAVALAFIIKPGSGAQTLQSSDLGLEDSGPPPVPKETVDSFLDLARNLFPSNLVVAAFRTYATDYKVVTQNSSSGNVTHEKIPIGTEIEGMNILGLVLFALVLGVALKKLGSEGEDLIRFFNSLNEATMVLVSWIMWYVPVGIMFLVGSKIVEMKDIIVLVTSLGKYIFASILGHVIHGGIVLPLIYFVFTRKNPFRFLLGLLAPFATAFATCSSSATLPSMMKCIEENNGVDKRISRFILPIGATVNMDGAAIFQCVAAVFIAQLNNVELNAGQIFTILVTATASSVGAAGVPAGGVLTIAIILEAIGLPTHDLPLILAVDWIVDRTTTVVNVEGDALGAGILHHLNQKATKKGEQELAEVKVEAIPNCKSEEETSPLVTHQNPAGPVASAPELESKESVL
UniProt O60264, whole entry, looked up: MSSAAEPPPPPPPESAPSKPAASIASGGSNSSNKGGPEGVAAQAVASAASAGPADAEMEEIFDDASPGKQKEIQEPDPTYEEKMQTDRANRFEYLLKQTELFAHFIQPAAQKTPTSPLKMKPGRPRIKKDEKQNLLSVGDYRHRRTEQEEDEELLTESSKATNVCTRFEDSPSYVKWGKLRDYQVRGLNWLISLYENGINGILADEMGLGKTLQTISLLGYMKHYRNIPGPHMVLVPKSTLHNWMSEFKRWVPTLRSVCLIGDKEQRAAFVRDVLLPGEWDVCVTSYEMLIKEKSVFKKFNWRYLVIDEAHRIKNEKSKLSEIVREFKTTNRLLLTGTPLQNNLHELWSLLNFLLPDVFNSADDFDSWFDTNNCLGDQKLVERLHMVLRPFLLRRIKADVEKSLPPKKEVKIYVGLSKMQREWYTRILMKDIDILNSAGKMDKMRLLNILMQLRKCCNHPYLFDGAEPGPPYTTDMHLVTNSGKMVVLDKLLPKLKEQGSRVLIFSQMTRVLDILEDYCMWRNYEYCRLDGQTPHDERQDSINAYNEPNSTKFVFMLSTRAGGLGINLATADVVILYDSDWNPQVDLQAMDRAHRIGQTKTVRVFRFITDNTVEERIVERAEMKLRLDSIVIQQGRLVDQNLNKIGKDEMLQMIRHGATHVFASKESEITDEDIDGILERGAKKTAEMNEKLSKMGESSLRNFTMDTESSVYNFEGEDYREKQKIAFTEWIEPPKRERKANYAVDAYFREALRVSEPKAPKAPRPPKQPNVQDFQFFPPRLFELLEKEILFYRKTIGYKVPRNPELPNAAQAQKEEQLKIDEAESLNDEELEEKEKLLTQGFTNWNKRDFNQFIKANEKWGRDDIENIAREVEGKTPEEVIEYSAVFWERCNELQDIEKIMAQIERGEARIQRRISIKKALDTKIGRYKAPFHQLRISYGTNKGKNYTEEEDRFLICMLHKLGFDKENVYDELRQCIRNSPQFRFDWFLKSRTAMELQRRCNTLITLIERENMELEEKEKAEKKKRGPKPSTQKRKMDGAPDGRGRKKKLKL

Compound: ClCC(=O)N[C@H]1CCCc2ccccc12
Experiment: log2 mean competition ratio of IA-DTB cysteine labelling (DMSO/compound) (log2 ratio); higher = stronger cysteine engagement by compound
Conditions: 200 µM; treatment time: 4 h; cell line lysate: HEK293T
Protocol: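 IA-DTB competitive cysteine chemoproteomics in HEK293T RIPA lysate. Lysates were treated with compound 29 or 30 at 50 or 200 µM for 4 h, then IA-DTB (500 µM, 1 h), trypsin-digested, NeutrAvidin-enriched and analysed by diaPASEF. Competition ratio = intensity DMSO / intensity compound (n=4 treated, n=64 DMSO); binding: mean log2 CR ≥ 1 and p ≤ 0.05 plus QC filters. Target is the cysteine site.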

| Target | log2 mean competition ratio |
| --- | --- |
| SPAG1 C633 (UniProt Q07617) | -0.198 |
| SLC7A1 C21 (UniProt P30825) | 0.0898 |
| SNRPD2 C46 | -0.0551 |
| SLC7A6OS C166 (UniProt Q96CW6) | 0.237 |
| SLC35B2 C80 (UniProt Q8TB61) | 0.261 |
| SOX4 C52 (UniProt Q06945) | 0.57 |
| SLC4A7 C993 (UniProt Q9Y6M7) | -0.602 |
| SLC5A3 C575 (UniProt P53794) | 0.116 |
| SLC1A4 C355 (UniProt P43007) | 0.375 |
| SMARCA5 C259 (UniProt O60264) | 0.188 |
